This note sets out measurements from patent US5532231A, “Antibacterial agent” (priority 1994, dated 1996).

The data set can be described thus: Adherence to polystyrene in the presence of E. coli ESS. The conditions noted are these: 4 μg TA, 20 μg Focusin; E. coli ESS in NB, 37° C.

Molecules are shown by their SMILES.

As for `CCCC1OC(=O)C(C)CC(C)CCCCC(=O)CCCC(CC)C=CC=C(COC)CCC(O)C(O)CC(O)CNC1=O` (centres unmarked) [TA, reference compound], the “time over which the agent was released from / still bound to polystyrene” value came out at 40 h.

Consider `CCCC1OC(=O)C(C)CC(C)CCCCC(=O)CCCC(CC)CCCC(COC)CCC(O)C(O)CC(O)CNC1=O` (centres unmarked) [Focusin], for which the “time over which the agent was released from / still bound to polystyrene” value is more than 88 h.
